For this assay, the target named is Heat shock factor 1 (HSF1) (human (endogenous in OVCAR4 and OVCAR8)) (UniProt Q00613). Description: co-IP.

By UniProt entry, the sequences of proteins in these tests, tags left out.
UniProt Q00613: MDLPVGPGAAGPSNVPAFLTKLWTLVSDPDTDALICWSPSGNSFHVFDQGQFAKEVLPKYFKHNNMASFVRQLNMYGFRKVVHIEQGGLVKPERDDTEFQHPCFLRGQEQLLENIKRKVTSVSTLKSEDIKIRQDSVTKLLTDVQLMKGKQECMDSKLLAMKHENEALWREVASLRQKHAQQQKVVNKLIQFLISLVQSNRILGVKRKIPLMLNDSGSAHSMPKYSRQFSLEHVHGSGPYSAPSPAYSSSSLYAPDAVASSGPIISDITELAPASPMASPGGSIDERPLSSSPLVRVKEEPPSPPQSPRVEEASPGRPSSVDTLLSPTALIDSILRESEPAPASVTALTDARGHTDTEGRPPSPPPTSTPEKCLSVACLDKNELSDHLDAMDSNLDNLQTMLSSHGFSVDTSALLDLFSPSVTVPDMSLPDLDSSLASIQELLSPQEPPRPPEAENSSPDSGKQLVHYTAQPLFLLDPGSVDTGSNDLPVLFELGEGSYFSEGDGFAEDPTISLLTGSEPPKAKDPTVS
UniProt P01106: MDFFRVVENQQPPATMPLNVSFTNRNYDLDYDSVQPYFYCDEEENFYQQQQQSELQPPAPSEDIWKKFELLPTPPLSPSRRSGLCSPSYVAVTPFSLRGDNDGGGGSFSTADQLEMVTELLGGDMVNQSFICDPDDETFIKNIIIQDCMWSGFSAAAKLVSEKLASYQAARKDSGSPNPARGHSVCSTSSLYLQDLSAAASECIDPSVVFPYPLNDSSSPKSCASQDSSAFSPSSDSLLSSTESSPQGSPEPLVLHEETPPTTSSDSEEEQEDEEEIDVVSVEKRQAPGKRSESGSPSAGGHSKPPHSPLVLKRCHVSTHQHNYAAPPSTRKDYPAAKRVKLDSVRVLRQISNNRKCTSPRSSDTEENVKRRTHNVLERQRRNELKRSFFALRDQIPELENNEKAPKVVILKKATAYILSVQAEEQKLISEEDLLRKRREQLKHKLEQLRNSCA

Results are given in words; binding and its absence hold for the method and conditions named. In cells and extracts the contact can be indirect. Some binding calls cover weakened binding; strength is not graded here.

Consider MYC (from UniProt P01106 1-454), for which the binding entry is listed as “binds”.

The record behind these values is article doi:10.1101/2024.06.11.598486.
